# Source: PubChem BioAssay AID540276 (National Center for Advancing Translational Sciences (NCATS), 2011)
# The campaign covered roughly 300,000 compounds. About 5,400 (1.8%) were called active. The inconclusive results got no clear call from the source; some entries with a clear call stand among them for comparison. The call rests on the fitted dose curve; tested in HEK293 cells. Potencies beside an inconclusive call are fits to weak or partial responses and may not hold up.
# Experiment: qHTS for inhibitors of binding or entry into cells for Marburg Virus
# Details: Marburg virus pseudotyped entry inhibition, cell reporter; activity change, negative = inhibition: at 37.8 µM (top of the series) unless noted
# On the % scale 0 is the no-effect control and ±100 the full control effect; potency means the concentration at half of the fitted maximal effect.
SMILES,Potency,"activity change, negative = inhibition"
Cc1noc(C)c1S(=O)(=O)N1CCCC(C(=O)NCCc2ccc(Cl)cc2)C1 (centres undefined),"inconclusive: 11.2 µM [inhibitor, single point]",
CC(C)CN(CC(C)C)C(=O)c1cccc(S(=O)(=O)N2CCc3ccccc32)c1,"inconclusive: 11.2 µM [inhibitor, partial curve, poor fit]",
CC(=O)NC1C(=O)N(CCc2ccccc2)c2ccccc21 (centres undefined),"inconclusive: 0.092 µM [activator, full curve, poor fit]",
Cc1ccnc(NC(=O)Nc2ccc3c(c2)N(C)C(=O)CS3)c1,"inconclusive: 3.98 µM [activator, single point]",
CCCCC1CCC(C(=O)N2CC(=O)Nc3ccc(Br)cc3C2c2ccc(F)cc2)CC1 (centres undefined),"inconclusive: 35.5 µM [inhibitor, single point]",
O=C(COc1ccc2ccccc2c1)Nc1nc2ccccc2[nH]1,,inactive: -9.22%
c1ccc(Cn2c(-c3cncs3)nc3ccccc32)cc1,,inactive: -17.6%
CC(=NCCO)c1c(O)n(C2CCCCC2)c(=O)[nH]c1=O,,inactive: -5.18%
Cc1ccc2cc(CN(Cc3ccc4c(c3)OCO4)Cc3nnnn3Cc3ccco3)c(=O)[nH]c2c1,"inconclusive: 22.4 µM [inhibitor, single point]",
COc1ccc(-n2c(C)cc(C(=O)Cn3c(NCCO)nc4ccccc43)c2C)cc1,"inconclusive: 9.2 µM [inhibitor, partial curve, poor fit]",
OC(CNC1CCCCCC1)COc1cccc2ccccc12 (centres undefined),"inconclusive: 3.16 µM [inhibitor, partial curve, poor fit]",
CCc1cccc(CC)c1NC(=O)CCCSc1nc2ccccc2s1,,inactive: -2.12%
CN(C)CC(CCC(CN(C)C)C(=O)c1ccccc1)C(=O)c1ccccc1 (centres undefined),active: 12.6 µM,
O=c1cc(CSc2nnc(-c3cccs3)n2Cc2ccccc2)nc2sc3ccccc3n12,"inconclusive: 32.6 µM [inhibitor, partial curve, poor fit]",
Cc1ccc(CN(C(=O)c2ccc(OCC(C)C)cc2)c2ccccn2)o1,"inconclusive: 6.31 µM [inhibitor, single point]",
CCc1ccc(Nc2ccc(C(N)=O)cc2[N+](=O)[O-])cc1,,inactive: -12.1%
CN(C)C(=O)c1ccc(NC(=O)c2cccc(S(=O)(=O)N3CCCc4ccccc43)c2)cc1,"inconclusive: 35.5 µM [inhibitor, single point]",
Cc1cc(C)c2nc(SCC(=O)N3CC(=O)Nc4ccccc43)c(C#N)cc2c1,"inconclusive: 4.47 µM [inhibitor, partial curve, poor fit]",
O=C(N/N=C/c1ccc(Cl)cc1Cl)Nc1ccccc1,"inconclusive: 23.1 µM [inhibitor, single point]",
Cc1cc(C)nc(NC(=O)Nc2ccccc2C(F)(F)F)n1,"inconclusive: 25.9 µM [inhibitor, single point]",
Cc1ccccc1N(C(=O)c1snc(C(N)=O)c1N)C(C(=O)NC1CCCC1)c1ccco1 (centres undefined),,inactive: -12.5% [at 46.1 µM]
Cc1ccc(N(CC(=O)N2CCN(c3cc(C)ccc3C)CC2)S(=O)(=O)c2c(C)nn(C)c2C)cc1,"inconclusive: 8.91 µM [inhibitor, partial curve, poor fit]",
CC(=O)c1cccc(NC(=O)CCCSc2ccccc2)c1,"inconclusive: 35.5 µM [inhibitor, single point]",

# Random excerpt: 3 entries already listed, in no set order.
SMILES,Potency,"activity change, negative = inhibition"
O=C(COc1ccc2ccccc2c1)Nc1nc2ccccc2[nH]1,,inactive: -9.22%
Cc1ccccc1N(C(=O)c1snc(C(N)=O)c1N)C(C(=O)NC1CCCC1)c1ccco1 (centres undefined),,inactive: -12.5% [at 46.1 µM]
O=C(N/N=C/c1ccc(Cl)cc1Cl)Nc1ccccc1,"inconclusive: 23.1 µM [inhibitor, single point]",

# Next structures

SMILES,Potency,"activity change, negative = inhibition"
CC(C(=O)N1CCN(C2c3ccccc3-c3ccccc32)CC1)N1C(=O)c2ccccc2C1=O (centres undefined),"inconclusive: 12.6 µM [activator, single point]",
O=[N+]([O-])c1nn(-c2ccccc2)n(O)c1=NC1CCN(Cc2ccccc2)CC1,"inconclusive: 0.562 µM [inhibitor, full curve, poor fit]",
CSC(=S)NCc1cccnc1,"inconclusive: 20 µM [inhibitor, partial curve, poor fit]",
CN(Cc1cn(-c2ccccc2)nc1-c1ccc(Cl)cc1)C(=O)CCC(=O)O,"inconclusive: 2.82 µM [inhibitor, partial curve, poor fit]",
C/C(=N\NC(N)=S)C12CC3CC(CC(C3)C1)C2,"inconclusive: 20.6 µM [inhibitor, partial curve]",
N#Cc1c(N)sc(=S)c2c1CCCC2,,inactive: 6.12%
COc1cc(CNC(=O)c2cc(C(=O)NCc3cc(OC)cc(OC)c3)n(C)n2)cc(OC)c1,,inactive: -2.45%
CCOC(=O)c1cc2c(nc1N)CC(C)(CC)OC2 (centres undefined),,inactive: 15.7%
COCc1cc(=O)n2[nH]c(-c3ccccc3)cc2n1,,inactive: 11% [at 46.1 µM]
CCOc1ccc(N(C)C(=O)c2oc(=O)c3ccccc3c2-c2ccccc2)cc1,,inactive: -19.6% [at 46.1 µM]
Cc1c(C(=O)Nc2ccccc2)sc2nc(-c3ccccc3)cn12,,inactive: -0.56%
COc1ccc(N2CCN(C(=O)CCCOc3cc(=O)n(C)c4ccccc34)CC2)cc1,"inconclusive: 10.3 µM [inhibitor, partial curve]",
c1ccc(-c2nnc3sc(Cc4cccs4)nn23)cc1,"inconclusive: 29.1 µM [activator, single point]",
Cc1cc(N/N=C/c2ccc(O)cc2O)nc(N2CCOCC2)n1,"inconclusive: 10.3 µM [inhibitor, partial curve]",
CNCc1c(OCc2ccccc2)ccc2ccccc12,"inconclusive: 6.31 µM [inhibitor, full curve, poor fit]",
Oc1ccc(N=Nc2nccs2)c(O)c1,"inconclusive: 11.2 µM [inhibitor, partial curve, poor fit]",
Cc1ccnc(NC(=O)c2ccccc2NC(=O)C(C)(C)C)c1,"inconclusive: 5.01 µM [inhibitor, full curve, poor fit]",
O=C(CCC1N=C2c3ccccc3N=C(SCC(=O)Nc3cccc(Cl)c3)N2C1=O)NCc1ccco1 (centres undefined),,inactive: -0.14% [at 46.1 µM]
Cc1nc2nc(NC(=O)c3ccc(C(C)(C)C)cc3)[nH]n2c(=O)c1C,,inactive: 29.2% [at 46.1 µM]
CC1CCN(S(=O)(=O)c2ccc(C(=O)Nc3nnc(-c4ccco4)o3)cc2)CC1,"inconclusive: 15.8 µM [inhibitor, single point]",
Cc1cc(C)c(C(=O)COC(=O)CCn2c(C)csc2=O)cc1C,"inconclusive: 0.0891 µM [activator, full curve, poor fit]",
CC1SCC(=NOCc2ccccc2)CS1 (centres undefined),"inconclusive: 10 µM [activator, partial curve, poor fit]",
O=C(CSc1nc2ccccc2[nH]1)Nc1ccccc1F,,inactive: 5.19%

# Structures listed so far that contain a cyano group, in the order listed:
SMILES,Potency,"activity change, negative = inhibition"
Cc1cc(C)c2nc(SCC(=O)N3CC(=O)Nc4ccccc43)c(C#N)cc2c1,"inconclusive: 4.47 µM [inhibitor, partial curve, poor fit]",
N#Cc1c(N)sc(=S)c2c1CCCC2,,inactive: 6.12%

# Going on with the list.

SMILES,Potency,"activity change, negative = inhibition"
CC(C)(C)c1ccc(C(=O)CCCSC2=C(C#N)C(c3ccco3)C3=C(CCCC3=O)N2)cc1 (centres undefined),"inconclusive: 10.3 µM [inhibitor, partial curve, poor fit]",
CC(=O)c1ccc(NC(=O)CN(C)CC(=O)Nc2cccc(F)c2)cc1,"inconclusive: 12.6 µM [activator, single point]",
COCCCNC(=O)c1cn(Cc2c(F)cccc2Cl)nn1,,inactive: -6.05% [at 46.1 µM]
COc1ccc(-c2cc(C(F)F)n3ncc(C(=O)n4ccnc4C)c3n2)cc1,"inconclusive: 3.98 µM [inhibitor, full curve]",
O=C(CSc1ncc(-c2ccccc2)[nH]1)Nc1ccccc1,"inconclusive: 3.98 µM [activator, single point]",
CCN1C(=O)c2ccccc2S(=O)(=O)c2ccc(C(=O)NCc3ccccc3)cc21,"inconclusive: 2.82 µM [inhibitor, partial curve, poor fit]",
O=C(NCc1ccccc1CN1CCCC1)c1ccc(Cl)c(S(=O)(=O)N2CCCC2)c1,"inconclusive: 15.8 µM [inhibitor, single point]",
Cc1ccc(/C=C/C(=O)Nc2ccncc2)o1,"inconclusive: 6.31 µM [activator, partial curve, poor fit]",
CCOC(=O)c1cnc(N)nc1-c1ccccc1,,inactive: -3.96%
COc1ccc(N2CCN(Cc3nc4ccccc4[nH]3)CC2)cc1,"inconclusive: 3.16 µM [activator, single point]",
Cc1cccc(C)c1NC(=O)C(c1cccs1)N(Cc1ccco1)C(=O)Cn1nnc2ccccc21 (centres undefined),"inconclusive: 0.282 µM [activator, partial curve, poor fit]",
COC(=O)c1ccc(C2C(C#N)=C(C)NC3=C2C(=O)CC(C)(C)C3)cc1 (centres undefined),,inactive: -8.11%
COc1ccc(C)cc1NC(=O)CN1CCN(S(=O)(=O)c2ccc3ccccc3c2)CC1,,inactive: -14.3%
O=C(NC1CN2CCC1CC2)c1ccc(-c2ccc([N+](=O)[O-])cc2)o1 (centres undefined),"inconclusive: 16.4 µM [inhibitor, single point]",
O=C(NCC1CCC(C(=O)O)CC1)OCc1ccccc1 (centres undefined),"inconclusive: 1.26 µM [inhibitor, single point]",
COCCn1c(=S)[nH]c2sc3c(c2c1=O)CCC(C)C3 (centres undefined),,inactive: 14.5% [at 46.1 µM]
COc1ccc(NC(=O)CSc2ncc3c(n2)-c2ccccc2N(Cc2ccc(C)cc2)S3(=O)=O)cc1Cl,"inconclusive: 5.62 µM [inhibitor, full curve, poor fit]",
CC(=O)c1c(C(=O)O)[nH]c(C(=O)O)c1C,,inactive: 1.5% [at 46.1 µM]
Cc1c(C)c([N+](=O)[O-])c(C)c(C)c1N,"inconclusive: 6.31 µM [activator, single point]",
CCN(CC(=O)NCc1cccs1)C(=O)c1ccc(NS(=O)(=O)c2cccc([N+](=O)[O-])c2)cc1,"inconclusive: 3.55 µM [activator, single point]",
O=C(CN1CCCC(O)C1)N1c2ccccc2Sc2ccc(C(F)(F)F)cc21 (centres undefined),,inactive: -2.27%
O=C(NCCC1=CCCCC1)C(=O)NCc1ccncc1,,inactive: -4.46% [at 46.1 µM]
